# According to PubChem BioAssay AID2685 (National Center for Advancing Translational Sciences (NCATS), 2010):
# Some of the results follow. These are further read-outs of the screen, such as a control signal, another cell line or another target. No call is given for them. Compounds called inactive in the main read-out are mostly missing here. The note in brackets gives the kind of curve behind each potency; many fits are weak.
# Assay: qHTS Assay for Lipid Storage Modulators in Drosophila S3 Cells;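 as to cell number change: cells counted by Cell Tracker Red CMTPX staining in the red channel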
# Conditions: BODIPY lipid droplet fluorescence, 18-24 h; for cell number change: measured here: cell count max response, cells fed with added oleic acid
# In short: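 Drosophila S3 cells loaded with oleic acid (400 uM, as added) and compounds at several concentrations; lipid droplets imaged by 488-nm laser-scanning cytometry, 500–530 nm intensity and object ratio to cell channel. Percent activity normalized to 20 uM Triacsin C.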
# [1] = measured here: lipid fluorescence (Fed channel) AC50, cells fed with added oleic acid
# [2] = measured here: cell number channel AC50, cells fed with added oleic acid
Structure (SMILES),cell number change [%],AC50 [1],AC50 [2]
CCC1(c2ccc(F)cc2)NC(=O)N(CC(=O)N2CCc3ccccc32)C1=O (stereo not drawn),-5.62,"7.31 µM [falling, partial curve]",–
CCOc1ccc(S(=O)(=O)N2CCC(C(=O)NC3CC3)CC2)cc1Cl,32.9,"6.31 µM [falling, single point]","0.00411 µM [rising, full curve, poor fit]"
Cc1ccc(C2=NN(S(C)(=O)=O)C(c3cccs3)C2)cc1 (stereo not drawn),4.09,"0.164 µM [rising, full curve, poor fit]",–
Cc1ccc(CSCCNC(=O)c2ccc(Cl)c(S(=O)(=O)N3CCOCC3)c2)cc1,-1.33,"6.51 µM [falling, single point]",–
Cc1ccc(OCCNc2ccc(S(=O)(=O)N3CCCC3)cn2)cc1,-2.03,–,–
O=C(c1cccs1)N1CCN(c2ccccc2)CC1,9.15,–,–
CCOC(=O)Cc1cc(-c2ccc(OC)cc2)nc2ccc3ccccc3c12,-1.97,–,–
COC(=O)c1ccc(C2C(Oc3ccccc3C)C(=O)N2CCc2ccc(OC)c(OC)c2)cc1 (stereo not drawn),-1.13,"0.58 µM [rising, single point]",–
Cc1cc(C)n(C(=O)c2ccc(S(=O)(=O)N3CCOCC3)cc2)n1,-52.6,"23.1 µM [falling, single point]","29.1 µM [falling, single point]"
COc1ccc([C@@H]2[C@@H]3C(=O)N(C(C)(C)C)C(=O)[C@@H]3[C@]3(Cc4ccccc4)C(=O)N(c4cccc(C)c4)C(=O)N23)cc1,12.1,"0.206 µM [rising, full curve, poor fit]",–
Nc1ccc(-c2cnc[nH]2)cc1[N+](=O)[O-],13.9,"4.11 µM [rising, full curve, poor fit]",–
CCC(C)NC(=O)C(Cc1ccccc1)NS(=O)(=O)c1ccc2c(c1)CCC(=O)N2 (stereo not drawn),–,"0.116 µM [falling, single point]",–
CCN(CC(=O)Nc1c(F)cccc1F)C(=O)c1csc2c1CCCC2,-14.7,"0.00461 µM [falling, full curve, poor fit]","0.00461 µM [falling, full curve, poor fit]"
C/C(=N/NC(=O)c1cc(-c2ccc(Cl)s2)[nH]n1)c1ccco1,-10.2,–,–
CC(NS(=O)(=O)c1ccc(OCC(=O)NCc2ccccn2)cc1)c1ccccc1 (stereo not drawn),-1.8,"11.6 µM [falling, single point]",–
CC1CCC(C(=O)NNC(=O)c2cc(-c3ccco3)[nH]n2)CC1 (stereo not drawn),7.35,"29.1 µM [rising, single point]",–
COCCCn1c(SCC(=O)N2CCOCC2)nc2cc(Cl)ccc2c1=O,2.39,"6.51 µM [falling, single point]",–
CC1(C)CC(=O)C=C(c2ccc(I)cc2)C1,18.4,–,"0.146 µM [falling, single point]"
N/C(=N\OC(=O)c1ccc2ccccc2c1)c1ccccc1Cl,57.6,"2.91 µM [falling, single point]","29.1 µM [rising, single point]"
O=C(NCC1(N2CCOCC2)CCCCC1)c1cccc(S(=O)(=O)Nc2ccc(F)cc2)c1,-14,–,–

Structure (SMILES),cell number change [%],AC50 [1],AC50 [2]
CCCS(=O)(=O)N1CCCC(C(=O)NCCCN2CCCC2=O)C1 (stereo not drawn),19.5,"0.731 µM [falling, single point]",–
O=C(O)CS(=O)(=O)CC(=O)O,-38.8,–,"0.517 µM [falling, full curve]"
CNC(=O)CN1C(=O)NC2(CCc3ccccc3C2)C1=O (stereo not drawn),14.2,"6.51 µM [falling, single point]","0.184 µM [falling, full curve]"
C=CCn1c(COc2cccc(C)c2C)nnc1SCC(=O)N1CCN(c2ccccc2)CC1,-13.2,"20.6 µM [falling, single point]",–
C[C@@H]1CN(c2c(F)c(F)c3c(=O)c(C(=O)O)cn(C4CC4)c3c2F)C[C@H](C)N1,267,"10.3 µM [falling, partial curve]",–
CCc1nn2c(=O)cc(CSCC(=O)Nc3ccccc3Cl)nc2s1,2.36,–,–
COC(=O)c1sc(NC(=O)CSc2nc3cccnc3n2C)nc1C,8.97,"29.1 µM [falling, partial curve, poor fit]",–
Cc1nccn1CC(=O)N/N=C/c1cc(Br)cs1,13,"14.6 µM [rising, single point]",–
O=C(NCc1ccc(Cl)cc1)C(=O)NCC1OCCCN1S(=O)(=O)c1cccs1 (stereo not drawn),19.4,"25.9 µM [rising, single point]",–
CCOP(=O)(OCC)c1cccc(P(=O)(c2ccccc2)c2ccccc2)c1O,-41.4,"0.116 µM [rising, full curve, poor fit]",–
CCC/C=C(\CCC)C(NS(=O)(=O)c1cccc2cccnc12)c1ccc(C(=O)OC)cc1 (stereo not drawn),-6.75,"7.31 µM [rising, partial curve]",–
Cc1ccc(S(=O)(=O)NNC(=S)NC(=O)c2ccc([N+](=O)[O-])cc2)cc1,9.9,"3.66 µM [falling, full curve, poor fit]","0.82 µM [falling, single point]"
CCc1nc2cc(C)nn2c2nc3ccccc3n12,-15.5,–,–
CCN1CCCC1CNC(=O)c1ccc(N2CCCC2=O)cc1 (stereo not drawn),-14.3,"0.00517 µM [falling, full curve, poor fit]",–
Cc1sccc1/C=N/NC(=O)c1cccc2ccccc12,14,"14.6 µM [rising, partial curve]",–
CCn1c(SCC(=O)NC(=O)Nc2ccc3c(c2)OCCO3)nnc1-c1cccs1,–,"6.51 µM [rising, partial curve, poor fit]","0.366 µM [rising, full curve]"
CCOc1ccc(N2CC(C(=O)NCCN3C(=O)S/C(=C\c4cccnc4)C3=O)CC2=O)cc1 (stereo not drawn),23.8,"6.51 µM [falling, single point]",–
Cc1ccc(NS(=O)(=O)c2cccc(C(=O)n3ncc(C#N)c3N)c2)c(C)c1,-9.49,–,–
COc1cc(OC)cc(-c2nc3ccccc3c(=O)n2OC(=O)c2ccccc2C)c1,-27,"20.6 µM [falling, partial curve]",–
CCCS(=O)(=O)c1c(S(=O)(=O)CCC)c2c3ccccc3ccn2c1C(N)=O,1.28,"6.51 µM [rising, single point]",–

Structure (SMILES),cell number change [%],AC50 [1],AC50 [2]
CC(Cc1cccs1)NC(=O)Nc1ccc(F)cc1 (stereo not drawn),-15,"0.58 µM [falling, single point]",–
CN(C)C(CNc1ccc(S(C)(=O)=O)cc1[N+](=O)[O-])c1ccccc1 (stereo not drawn),12.9,–,–
COc1ccc(-c2nn(CCC#N)cc2C(=O)Nc2cccc(C(=O)O)c2)cc1[N+](=O)[O-],30.8,"1.3 µM [falling, partial curve, poor fit]","16.4 µM [rising, partial curve]"
Cc1cc2cc(CCNC(=O)CC(C)(C)C)c(=O)[nH]c2cc1C,130,–,"13 µM [rising, partial curve]"
CC(=O)c1c(C)[nH]c(C(=O)OCC(=O)Nc2cc(C)on2)c1C,11.9,"0.461 µM [rising, full curve]",–
CC(C)C[C@H]1CN=C(Nc2ccccc2)N1CC1CCC(C(C)(C)C)CC1 (stereo partly drawn),-1.75,"0.411 µM [rising, partial curve, poor fit]",–
CC(=O)Nc1ccc2[nH]c3ccccc3c2c1,6.03,"0.164 µM [falling, full curve, poor fit]",–
O=C(Nc1ccc(F)cc1)C(c1ccccc1)N1CCN(CC(=O)N2CCCC2)CC1 (stereo not drawn),2.77,"18.4 µM [rising, partial curve]",–
CC(C)Oc1cccc(C(=O)C2CCCN(C(=O)c3ccoc3)C2)c1 (stereo not drawn),-7.96,"32.6 µM [falling, single point]",–
O=C(O)CCc1nn2c3ccccc3nc2n(CCN2CCCCC2)c1=O,26.6,"11.6 µM [rising, partial curve, poor fit]",–
Cc1cc2nc(C)n3c4ccccc4nc3n2n1,-50.2,–,"29.1 µM [falling, single point]"
CCOc1ccc(S(=O)(=O)Nc2ccc(C(=O)N3CCC3)cc2)cc1,39.2,"18.4 µM [rising, single point]","25.9 µM [rising, single point]"
O=C(NC(=S)Nc1ccc2oc(=O)ccc2c1)c1cccc(F)c1,4.84,"2.31 µM [falling, full curve, poor fit]",–
C[C@H]1CN=C(Nc2ccccc2)N1CCCC1CCCC1,37.1,–,"1.84 µM [rising, full curve]"
COc1ccc(Cl)cc1S(=O)(=O)N1CCN=C1C,-10.4,"6.51 µM [falling, single point]",–
O=C(NC1CCSC1=O)c1ccc(Oc2ccc(F)cc2)nc1 (stereo not drawn),-30.8,"0.103 µM [falling, full curve, poor fit]","0.366 µM [falling, partial curve]"
COc1ccc(Cl)cc1NC(=O)CNC(c1ccccc1)c1ccccc1,7.56,"0.291 µM [rising, full curve, poor fit]",–
COc1cc2c(cc1NC(=O)CSc1nnnn1-c1ccccc1)oc1ccccc12,31.1,–,"14.6 µM [rising, single point]"
COc1cc(C)ccc1OCCCCOc1ccccc1C(C)=O,24.9,"0.103 µM [rising, full curve, poor fit]","0.103 µM [rising, full curve, poor fit]"
